Laboratory results from patent publication US20070149481A1, “N,n-bridged, nitrogen-substituted carbacyclic indolocarbazoles as protein kinase inhibitors” (priority 2002, published 2007).
At least one structure is not confirmed: it was looked up by name or label, or the drawing left a doubt.

Experiment: Solubility of free base NAD0241 and its hydrochloride salt in 99/1 water/DMSO
Assay type: physicochemical
Conditions: water/DMSO 99/1, salt vs free base
Description: Stock solutions of NAD0241 (100 mM) and of its hydrochloride salt ([…]) in DMSO (UV-grade) were prepared freshly before the experiment and further diluted to a final concentration of 10 mM. These stock solutions in 100% DMSO were diluted with water (UV grade) to provide five 99/1 water/DMSO samples with varying concentrations of the compound (1000, 500, 100, 50 and 10 μM).
Each sample was thoroughly mixed by rigorous vortexing (30 seconds) followed by equilibration for 18 hours at room temperature. A […] for each sample was transferred into 1.5 mL polypropylene tubes and centrifuged for 30 minutes at room temperature at 16000 g in a fixed angle tabletop centrifuge (Heraeus Biofuge pico equipped with #3325 rotor). The supernatant was pipetted into a quartz glass cuvette and UV-absorption (322 nm) was measured in a UV spectrophotometer (Varian Cary 50). Each experiment was run in duplicate.

Cl.NC(=O)C1(N)CC2CC1n1c3ccccc3c3c4c(c5c6ccccc6n2c5c31)C(=O)NC4=O (stereo not shown) [NAD0241-hydrochloride salt]
improvement in aqueous solubility by forming the hydrochloride salt: about one order of magnitude
